Data published in PubChem BioAssay AID1671190 (National Center for Advancing Translational Sciences (NCATS), 2021).
Out of some 580,000 compounds screened, about 6,100 (1.1%) were called active. Inconclusive means that the source gave no clear call. Such entries were picked first, then a sample of the others. Calls follow the shape of the dose curve; as a rule, active = well fitted inhibition curve with a large enough effect; inconclusive = small, poorly fitted or top-dose-only effect, or another doubt; inactive = no such curve, though single readings can be large or run the other way. A potency beside an inconclusive call is a rough fit, not a confirmed value.

By UniProt entry, the sequences of proteins in these tests, tags left out. Where a name states a change or a piece, a line headed by the entry shows the natural chain unless it says otherwise.
UniProt P18054: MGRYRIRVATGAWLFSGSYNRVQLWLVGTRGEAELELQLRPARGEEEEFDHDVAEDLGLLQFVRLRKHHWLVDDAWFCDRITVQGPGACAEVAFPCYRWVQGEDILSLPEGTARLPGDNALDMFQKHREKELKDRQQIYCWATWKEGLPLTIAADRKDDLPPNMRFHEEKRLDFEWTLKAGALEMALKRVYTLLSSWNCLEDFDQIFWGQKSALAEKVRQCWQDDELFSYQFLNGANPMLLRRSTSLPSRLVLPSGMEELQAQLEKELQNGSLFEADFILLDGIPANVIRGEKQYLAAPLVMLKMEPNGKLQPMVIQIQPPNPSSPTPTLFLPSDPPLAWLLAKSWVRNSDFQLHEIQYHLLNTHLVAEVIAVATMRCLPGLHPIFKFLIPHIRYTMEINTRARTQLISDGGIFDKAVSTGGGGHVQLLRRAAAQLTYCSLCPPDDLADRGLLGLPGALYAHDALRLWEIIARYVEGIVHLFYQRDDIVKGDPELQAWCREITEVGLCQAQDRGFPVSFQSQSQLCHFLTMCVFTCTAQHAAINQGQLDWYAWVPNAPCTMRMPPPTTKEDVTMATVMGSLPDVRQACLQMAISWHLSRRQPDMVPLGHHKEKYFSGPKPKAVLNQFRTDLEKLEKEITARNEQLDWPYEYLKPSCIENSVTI

What follows are compounds tested against Polyunsaturated fatty acid lipoxygenase ALOX12 (Homo sapiens) (UniProt P18054) (assay: Primary qHTS assay for inhibitors of human arachidonate 12S-lipoxygenase (ALOX12): Round 2). Conditions: purified 12hLO, xylenol orange hydroperoxide absorbance; activity change, negative = inhibition: at 108 µM (top of the series) unless noted.
Method in brief: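 Purified human 12hLO (150 nM final) in 25 mM Hepes, 0.01% Triton X-100, pH 7.0 was preincubated 15 min at room temperature with compound. Then 40 uM arachidonic acid was added, 30 min. Hydroperoxide was read by Fe-XO absorbance ratio 573/405 nm.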
% is scaled to controls: 0 for no effect and ±100 for the full control effect; potency is read from the fitted curve at half-maximal effect.

Compound | Potency | activity change, negative = inhibition
CCN1CCN(C(c2cccs2)C(C)NC(=O)c2c(F)cccc2F)CC1 (stereo unspecified) | inactive | 
O=c1cc(C(F)(F)F)c2ccc(OS(=O)(=O)c3cccc(C(F)(F)F)c3)cc2o1 | inactive | 
CCCn1c(C)cc(C(=O)COc2ccc(-c3nnco3)cc2)c1C | inconclusive: 100 µM [inhibitor, partial curve, poor fit] | 
Cc1ccc(C(=O)NCCc2nc3cc(NC(=O)c4ccccc4C)ccc3n2C)cc1F | inconclusive: 1.58 µM [inhibitor, full curve, poor fit] | 
COc1ccc(N(C(=O)CCl)C(C(=O)NCCc2ccccc2)c2cccs2)cc1Cl (stereo unspecified) | inconclusive: 44.7 µM [inhibitor, partial curve, poor fit] | 
O=C1C(c2ccccn2)=[N+]([O-])c2ccccc21 | inconclusive: 4.47 µM [inhibitor, partial curve, poor fit] | 
CCOC(=O)c1cnc(SCC(=O)c2ccc3c(c2)OCCO3)nc1N | inconclusive: 44.7 µM [inhibitor, partial curve, poor fit] | 
Cc1c(NC(=O)c2cccc(S(=O)(=O)N(C)C)c2)c(=O)n(-c2ccccc2)n1C | inconclusive: 8.91 µM [inhibitor, full curve, poor fit] | 
N#CCCCSc1ccc2c(c1)OCCCO2 | inconclusive: 39.8 µM [inhibitor, partial curve, poor fit] | 
c1ccc(-n2ncc3c(Nc4cccc5c4CCCC5)ncnc32)cc1 | inconclusive: 50.1 µM [inhibitor, partial curve, poor fit] | 
COc1ccc2cc(C(=O)NC3CCN(C(=O)c4ccccc4)CC3)c(C)nc2c1 | inactive | 
Fc1cccc(/C=C2\CCCC3=C2NC(=S)NC3c2cccc(F)c2)c1 (stereo unspecified) | inconclusive: 1.12 µM [inhibitor, full curve, poor fit] | 
COc1ccc(NC(=O)C[C@H]2C(=O)N(c3ccc(Br)cc3)C[C@@H]2CSC)cc1 | inconclusive: 79.4 µM [inhibitor, single point] | 
CC1CCN(CC(=O)Nc2ccc(S(=O)(=O)N3CCCC(C)C3)cc2)CC1 (stereo unspecified) | inconclusive: 141 µM [inhibitor, single point] | 
COc1cc2c(cc1/C=C(/C#N)c1ccccn1)OC(C)C2 (stereo unspecified) | inconclusive: 20 µM [inhibitor, partial curve, poor fit] | 
CSc1ccc(CNC(=O)c2cc3c(s2)CCCC3)cc1 | inconclusive: 35.5 µM [inhibitor, partial curve, poor fit] | 
O=C1OCCN1C(=O)[C@H]1[C@H](c2ccc([N+](=O)[O-])cc2)C(c2ccc(F)cc2)=NN1c1ccc(Br)cc1 | inconclusive: 31.6 µM [inhibitor, partial curve, poor fit] | 
CCc1cc(C(=O)c2ccccc2)c(N)s1 | inconclusive: 39.8 µM [inhibitor, partial curve, poor fit] | 
O=C(NCCN1CCN(c2ccccc2)CC1)Nc1cccc(Br)c1 | inconclusive: 4.47 µM [inhibitor, full curve, poor fit] | 
CN(C)c1ccc(-c2nc(NCc3cccnc3)c3ccccc3n2)cc1 | inconclusive: 8.91 µM [inhibitor, partial curve, poor fit] | 
Cc1cccnc1C(NC(=O)C1CCN(CCOc2ccc(Cl)cc2Cl)CC1)c1ccc(Cl)cc1 (stereo unspecified) | inconclusive: 112 µM [inhibitor, single point] | 
COC(=O)C1=C(C)N(C)C(=O)NC1c1ccc(Br)o1 (stereo unspecified) | inactive | 

Compound | Potency | activity change, negative = inhibition
O=C(NCC1CCOCC1)c1cc(COc2cccc(C(F)(F)F)c2)on1 | inactive | 
O=C(C=P(c1ccccc1)(c1ccccc1)c1ccccc1)c1ccccc1-c1ccccc1C(=O)C=P(c1ccccc1)(c1ccccc1)c1ccccc1 | inconclusive: 70.8 µM [inhibitor, partial curve, poor fit] | 
C=CCn1c(SCC(=O)O)nnc1-c1ccc(C(C)(C)C)cc1 | inconclusive: 28.2 µM [inhibitor, partial curve, poor fit] | 
S=C(NCCc1ccc(Cl)cc1Cl)NCc1ccccc1 | inconclusive: 44.7 µM [inhibitor, partial curve, poor fit] | 
Cc1ccc2ccc(C(Nc3ccccc3)c3ccc(F)cc3)c(O)c2n1 (stereo unspecified) | inconclusive: 22.4 µM [inhibitor, partial curve, poor fit] | 
COc1cc(NC(=O)COC(=O)c2ccccc2SCc2c(C)noc2C)cc(OC)c1 | inactive | 
CN(C)C(=O)c1nc(-c2ccc(Cl)cc2Cl)c2cnccn12 | inconclusive: 35.5 µM [inhibitor, full curve, poor fit] | 
C=CCn1cc(/C=C/c2cc[n+](C)cc2)c2ccccc21 | inconclusive: 44.7 µM [inhibitor, partial curve, poor fit] | 
Cc1cc(N2CCN(c3cccc(C)c3C)CC2)n2cnnc2n1 | inconclusive: 158 µM [inhibitor, partial curve, poor fit] | 
CC(=O)Nc1ccc(NC(=O)CCc2ccc(C)o2)cc1 | inactive | 
COc1ccc(C(=O)NCC(=O)N2CC=C(c3ccccc3)CC2)cc1OC | inconclusive: 112 µM [inhibitor, single point] | 
CCCNc1nc2ccccc2nc1S(=O)(=O)Cc1ccc(Cl)cc1 |  | inconclusive: -31.6% [inhibitor]
O=C(c1cccc2ccccc12)N1CCN(Cc2c[nH]c3ccccc23)CC1 | active: 1 µM | 
Nc1nc(-c2ccc(Cl)cc2)nn1C(=O)c1ccc(F)cc1 | inactive | 
O=C1CCCc2nccc(-c3ccc(Cl)cc3)c21 | inconclusive: 89.1 µM [inhibitor, single point] | 
CCOC(=O)Cc1nnc(NC(=O)c2ccco2)s1 | inactive | 
CC(C)CCNc1nc(C(=O)Nc2ccc(Cn3cncn3)cc2)cs1 | inactive | 
O=S(=O)(NCC1CCCO1)c1ccc(Br)s1 (stereo unspecified) | inconclusive: 22.4 µM [inhibitor, partial curve, poor fit] | 
CC(NC(=O)Cn1nc(C(=O)O)c2ccccc2c1=O)c1ccccc1 (stereo unspecified) | inactive | 
O=C(c1cc(Cl)ccc1F)N1CCC(n2cc(-c3nc(C4CC4)no3)nn2)C1 (stereo unspecified) | inconclusive: 70.8 µM [inhibitor, single point] | 
COc1cc(OC)c(NS(=O)(=O)c2cc(-c3n[nH]c(=O)c4c3CCCC4)ccc2C)cc1Cl | inactive | 
O=C(Nc1ccc(F)cc1F)c1cc(-c2ccc[nH]2)n[nH]1 | active: 11.2 µM | 

Compound | Potency | activity change, negative = inhibition
COc1ccccc1N1CCN(CCS(=O)(=O)c2cc(Cl)ccc2Cl)CC1 | inconclusive: 141 µM [inhibitor, single point] | 
CCS(=O)(=O)N1CCc2cc(C(=O)CSc3nnc(C)n3C3CC3)ccc21 | inconclusive: 7.08 µM [inhibitor, full curve, poor fit] | 
Cc1cccc(Nc2sc(C(=O)c3cc4cc(Cl)ccc4o3)c(N)c2C#N)c1 | inconclusive: 3.16 µM [inhibitor, full curve, poor fit] | 
COCOc1cc(O)c2c(=O)c(OCOC)c(-c3ccc(OCOC)c(OCOC)c3)oc2c1 | inactive | 
COc1ccccc1CNC(=O)Cn1c(=O)oc2cc(S(=O)(=O)N3CCCC3)ccc21 | inactive | 
N#CCSc1nnc(-c2ccccc2O)n1CCc1ccccc1 | inconclusive: 39.8 µM [inhibitor, partial curve, poor fit] | 
COc1ccc(C(=O)Nc2ccc(S(=O)(=O)Nc3nccc(C)n3)cc2)cc1 | inconclusive: 2.24 µM [inhibitor, full curve, poor fit] | 
COc1cc(C(=O)NNc2nc3cc4c(cc3s2)OCO4)cc(OC)c1OC | inconclusive: 112 µM [inhibitor, single point] | 
CCOC(=O)c1ccc(NC(=O)C2CC(=O)NC(=Nc3ccc(C)c(C)c3)S2)cc1 (stereo unspecified) | inconclusive: 141 µM [inhibitor, partial curve, poor fit] | 
O=C(CSc1ncnc2nc[nH]c12)Nc1ccccc1F | inactive | 
c1ccc(-c2nnc(-c3ccco3)o2)cc1 | inactive | 
COc1ccc(-c2[nH][nH]c(=O)c2NC(=O)c2ccccn2)cc1 | inconclusive: 0.631 µM [inhibitor, full curve, poor fit] | 
CCc1[nH]c2c(CNC(=O)C3(C)CCCCO3)cc(F)cc2c1C (stereo unspecified) | inactive | 
O[C@H]1C[C@H](c2ccccc2)N(Cc2cccs2)C[C@@H]1n1cc(C2CC2)nn1 | inconclusive: 100 µM [inhibitor, single point] | 
CC(C)C1Cc2[nH]c(=S)[nH]c(=O)c2C(c2ccc(F)cc2)O1 (stereo unspecified) | inconclusive: 126 µM [inhibitor, single point] | 
COc1ccc(NC(=O)C(C)N(c2ccc(C)cc2)S(C)(=O)=O)cc1 (stereo unspecified) | inconclusive: 20 µM [inhibitor, full curve, poor fit] | 
O=c1[nH]c2cccnc2n(CCNc2ncc(C(F)(F)F)cc2Cl)c1=O | inconclusive: 50.1 µM [inhibitor, partial curve, poor fit] | 
O=C(O)Cc1sc(Nc2cccc3ccccc23)nc1-c1ccccc1 | inconclusive: 50.1 µM [inhibitor, partial curve, poor fit] | 
COc1ccc(C(=O)N2CCC(c3nn(-c4ccccc4)c(=O)[nH]3)CC2)cc1 | inactive | 
COC(=O)CC1C(=O)NCCN1C(=O)CSc1nc2ccccc2s1 (stereo unspecified) | inconclusive: 79.4 µM [inhibitor, partial curve, poor fit] | 
COc1ccc(N2CCN(C(=O)Cc3ccc(Br)cc3)CC2)cc1 | inactive | 
CCCCCCCC/C=C\CCCCCCCC(=O)NCCc1ccc(O)c(O)c1 | inconclusive: 10 µM [inhibitor, full curve, poor fit] | 

Reformatted with each value named: entries from further up.
N#CCSc1nnc(-c2ccccc2O)n1CCc1ccccc1
  Potency: inconclusive: 39.8 µM [inhibitor, partial curve, poor fit]
COc1ccc(C(=O)Nc2ccc(S(=O)(=O)Nc3nccc(C)n3)cc2)cc1
  Potency: inconclusive: 2.24 µM [inhibitor, full curve, poor fit]
COc1cc(C(=O)NNc2nc3cc4c(cc3s2)OCO4)cc(OC)c1OC
  Potency: inconclusive: 112 µM [inhibitor, single point]
CCOC(=O)c1ccc(NC(=O)C2CC(=O)NC(=Nc3ccc(C)c(C)c3)S2)cc1 (stereo unspecified)
  Potency: inconclusive: 141 µM [inhibitor, partial curve, poor fit]
